Values joined by “and” are separate entries in the source; they are usually repeats but may differ in a detail not shown here. Equal values may be shown once. Non-standard residues stand in square brackets, D forms with d. Residues, ends and D or L forms follow the SMILES beside them. Hyp = O=C(O)[C@@H]1C[C@@H](O)CN1
Tested on: CNT1
Experiment: Untargeted metabolomics of Slc28a1-/- vs Slc28a1+/+ mouse urine (24 h, ad libitum)
Settings: Slc28a1-/- / Slc28a1+/+

SMILES | Fold Change | log2(FC)
O=C1NCc2ccccc21 [Isoindolin-1-one] | 0.4546 | -1.1373
CC[C@H](C)[C@H](N)C(=O)N1C[C@H](O)C[C@H]1C(=O)O [Isoleucylhydroxyproline] (H-Ile-[Hyp]-OH) | 1.4078 | 0.4935
CCC(C)C(N)C(=O)N1CCCC1C(=O)O (stereo not drawn) [Isoleucylproline] (H-Ile-Pro-OH; configuration not given here) | 1.0909 | 0.1255
c1ccc2cnccc2c1 [Isoquinoline] | 84.403 | 6.3992
CC(C)CC(=O)N[C@@H](CCC(=O)O)C(=O)O [Isovalerylglutamic acid] | 1.3227 | 0.4035
O=C(O)[C@@H]1Cc2c([nH]c3ccccc23)CN1 [L-1,2,3,4-Tetrahydro-beta-carboline-3-carboxylic acid] | 0.7991 | -0.3236
CSCC[C@H](N)C(=O)O [L-Methionine] | 0.5434 | -0.8798
O=C(O)[C@@H]1CCCN1 [L-Proline] | 6E-01 and 0.6085 | -0.7 and -0.7167
Cc1cc(=O)c(O)cn1CCCCC(N)C(=O)O [L-Pyridosine] | 2.2535 | 1.1722
N[C@@H](Cc1ccc(O)cc1)C(=O)O [L-Tyrosine] |  | 0.5105
N[C@@H](CCCCn1cccc1)C(=O)O [L-alpha-Amino-1H-pyrrole-1-hexanoic acid] | 7E+01 and 69.87 | 6.1 and 6.1266
CC(O)C(N)=O (stereo not shown) [Lactamide] | 0.8454 | -0.2422
COC(=O)[C@H](CC(C)C)NC(=O)[C@@H](N)CC(C)C [Leucylleucine methyl ester] | 13.262 | 3.7292
COC(=O)C1=CO[C@@H](O[C@@H]2O[C@H](CO)[C@@H](O)[C@H](O)[C@H]2O)[C@@H]2[C@@H](C)[C@@H](O)C[C@H]12 [Loganoside] | 1.4295 | 0.5155
CCOC(=O)[C@@](C)(N)Cc1ccc(O)c(O)c1 [Methyldopate] | 0.3271 | -1.6121
CC(=O)Nc1ccn([C@@H]2O[C@H](CO)[C@@H](O)[C@H]2O)c(=O)n1 [N4-Acetylcytidine] | 1.3899 | 0.475
O=C(O)[C@H](Cc1ccc(O)cc1)NCC(=O)[C@@H](O)[C@H](O)[C@H](O)CO [N-(1-Deoxy-1-fructosyl)tyrosine] | 1.4934 | 0.5786
CCCC(CCC)NC(=O)c1ccc2c(c1)OCO2 [N-(Heptan-4-yl)benzo[d][1,3]dioxole-5-carboxamide] | 2.7234 | 1.4454
CC(=O)N[C@@H](Cc1ccccc1)C(=O)O [N-Acetyl-L-phenylalanine] | 4E-01 and 0.3732 | -1.4 and -1.422
CC(=O)N[C@@H](CSCCCO)C(=O)O [N-Acetyl-S-(3-hydroxypropyl)cysteine] | 4E-01 and 0.3529 | -1.5 and -1.5026
C=CCSC[C@H](NC(C)=O)C(=O)O [N-Acetyl-S-allylcysteine] | 3E-02 and 0.02838 | -5.1 and -5.1388
CC(=O)N1CCCC1C(=O)O (stereo not shown) [N-Acetylproline] | 1.2077 | 0.2723

Source: PMC10235067, “Increased renal elimination of endogenous and synthetic pyrimidine nucleosides in concentrative nucleoside transporter 1 deficient mice” (Nature Communications, 2023)
